This passage reports percent infected results from the supplement of paper PMC3353916.

The subject of the data set is Sindbis virus TE/5'2J-GFP. Description: percent infected (GFP+ in RFP+ ISG-expressing cells); higher = more infection (less antiviral activity). The note with it: experiment: primary screen (single well).

This is a noisy data set.

“MAGAATGSRTPGRSELVEGCGWRCPEHGDRVAELFCRRCRRCVCALCPVLGAHRGHPVGLALEAAVHVQKLSQECLKQLAIKKQQHIDNITQIEDATEKLKANAESSKTWLKGKFTELRLLLDEEEALAKKFIDKNTQLTLQVYREQADSCREQLDIMNDLSNRVWSISQEPDPVQRLQAYTATEQEMQQQMSLGELCHPVPLSFEPVKSFFKGLVEAVESTLQTPLDIRLKESINCQLSDPSSTKPGTLLKTSPSPERSLLLKYARTPTLDPDTMHARLRLSADRLTVRCGLLGSLGPVPVLRFDALWQVLARDCFATGRHYWEVDVQEAGAGWWVGAAYASLRRRGASAAARLGCNRQSWCLKRYDLEYWAFHDGQRSRLRPRDDLDRLGVFLDYEAGVLAFYDVTGGMSHLHTFRATFQEPLYPALRLWEGAISIPRLP [TRIM14]” had a percent infected (BHK/HA-Zeo (control)) of 96.8% and a percent infected (BHK/NZAP-Zeo (ZAP)) of 86.1%. For “MDSRVSELFGGCCRPGGGPAVGGTLKARGAGSSSGCGGPKGKKKNGRNRGGKANNPPYLPPEAEDGNIEYKLKLVNPSQYRFEHLVTQMKWRLQEGRGEAVYQIGVEDNGLLVGLAEEEMRASLKTLHRMAEKVGADITVLREREVDYDSDMPRKITEVLVRKVPDNQQFLDLRVAVLGNVDSGKSTLLGVLTQGELDNGRGRARLNLFRHLHEIQSGRTSSISFEILGFNSKGEVVNYSDSRTAEEICESSSKMITFIDLAGHHKYLHTTIFGLTSYCPDCALLLVSANTGIAGTTREHLGLALALKVPFFIVVSKIDLCAKTTVERTVRQLERVLKQPGCHKVPMLVTSEDDAVTAAQQFAQSPNVTPIFTLSSVSGESLDLLKVFLNILPPLTNSKEQEELMQQLTEFQVDEIYTVPEVGTVVGGTLSSGICREGDQLVVGPTDDGCFLELRVCSIQRNRSACRVLRAGQAATLALGDFDRALLRKGMVMVSPEMNPTICSVFEAEIVLLFHATTFRRGFQVTVHVGNVRQTAVVEKIHAKDKLRTGEKAVVRFRFLKHPEYLKVGAKLLFREGVTKGIGHVTDVQAITAGEAQANMGF [GTPBP2]”, in that order: 97.2% and 80.7%. As for “MAAPGPALCLFDVDGTLTAPRQKITKEMDDFLQKLRQKIKIGVVGGSDFEKVQEQLGNDVVEKYDYVFPENGLVAYKDGKLLCRQNIQSHLGEALIQDLINYCLSYIAKIKLPKKRGTFIEFRNGMLNVSPIGRSCSQEERIEFYELDKKENIRQKFVADLRKEFAGKGLTFSIGGQISFDVFPDGWDKRYCLRHVENDGYKTIYFFGDKTMPGGNDHEIFTDPRTMGYSVTAPEDTRRICELLFS [PMM2]”, the percent infected by setting is: (BHK/HA-Zeo (control)) 94%; (BHK/NZAP-Zeo (ZAP)) 86.5%.

Regarding “MRVMAPRALLLLLSGGLALTETWACSHSMRYFDTAVSRPGRGEPRFISVGYVDDTQFVRFDSDAASPRGEPRAPWVEQEGPEYWDRETQKYKRQAQADRVSLRNLRGYYNQSEDGSHTLQRMSGCDLGPDGRLLRGYDQSAYDGKDYIALNEDLRSWTAADTAAQITQRKLEAARAAEQLRAYLEGTCVEWLRRYLENGKETLQRAEPPKTHVTHHPLSDHEATLRCWALGFYPAEITLTWQRDGEDQTQDTELVETRPAGDGTFQKWAAVVVPSGQEQRYTCHMQHEGLQEPLTLSWEPSSQPTIPIMGIVAGLAVLVVLAVLGAVVTAMMCRRKSSGGKGGSCSQAACSNSAQGSDESLITCKA [HLA-C]”, the percent infected reads like this: (BHK/HA-Zeo (control)) 95.9%; (BHK/NZAP-Zeo (ZAP)) 89.5%. For the substance PRIC285, the percent infected by setting is: (BHK/HA-Zeo (control)) 95.9%; (BHK/NZAP-Zeo (ZAP)) 83.7%. As to “MAALMTPGTGAPPAPGDFSGEGSQGLPDPSPEPKQLPELIRMKRDGGRLSEADIRGFVAAVVNGSAQGAQIGAMLMAIRLRGMDLEETSVLTQALAQSGQQLEWPEAWRQQLVDKHSTGGVGDKVSLVLAPALAACGCKVPMISGRGLGHTGGTLDKLESIPGFNVIQSPEQMQVLLDQAGCCIVGQSEQLVPADGILYAARDVTATVDSLPLITASILSKKLVEGLSALVVDVKFGGAAVFPNQEQARELAKTLVGVGASLGLRVAAALTAMDKPLGRCVGHALEVEEALLCMDGAGPPDLRDLVTTLGGALLWLSGHAGTQAQGAARVAAALDDGSALGRFERMLAAQGVDPGLARALCSGSPAERRQLLPRAREQEELLAPADGTVELVRALPLALVLHELGAGRSRAGEPLRLGVGAELLVDVGQRLRRGTPWLRVHRDGPALSGPQSRALQEALVLSDRAPFAAPSPFAELVLPPQQ [TYMP]”, the percent infected is, setting by setting: (BHK/HA-Zeo (control)) 94.1%; (BHK/NZAP-Zeo (ZAP)) 89%. “MAASKKAVLGPLVGAVDQGTSSTRFLVFNSKTAELLSHHQVEIKQEFPREGWVEQDPKEILHSVYECIEKTCEKLGQLNIDISNIKAIGVSNQRETTVVWDKITGEPLYNAVVWLDLRTQSTVESLSKRIPGNNNFVKSKTGLPLSTYFSAVKLRWLLDNVRKVQKAVEEKRALFGTIDSWLIWSLTGGVNGGVHCTDVTNASRTMLFNIHSLEWDKQLCEFFGIPMEILPNVRSSSEIYGLMKISHSVKAGALEGVPISGCLGDQSAALVGQMCFQIGQAKNTYGTGCFLLCNTGHKCVFSDHGLLTTVAYKLGRDKPVYYALEGSVAIAGAVIRWLRDNLGIIKTSEEIEKLAKEVGTSYGCYFVPAFSGLYAPYWEPSARGIICGLTQFTNKCHIAFAALEAVCFQTREILDAMNRDCGIPLSHLQVDGGMTSNKILMQLQADILYIPVVKPSMPETTALGAAMAAGAAEGVGVWSLEPEDLSAVTMERFEPQINAEESEIRYSTWKKAVMKSMGWVTTQSPESGDPSIFCSLPLGFFIVSSMVMLIGARYISGIP [GK]” had a percent infected (BHK/HA-Zeo (control)) of 93.6%. Regarding “MAEQVLPQALYLSNMRKAVKIRERTPEDIFKPTNGIIHHFKTMHRYTLEMFRTCQFCPQFREIIHKALIDRNIQATLESQKKLNWCREVRKLVALKTNGDGNCLMHATSQYMWGVQDTDLVLRKALFSTLKETDTRNFKFRWQLESLKSQEFVETGLCYDTRNWNDEWDNLIKMASTDTPMARSGLQYNSLEEIHIFVLCNILRRPIIVISDKMLRSLESGSNFAPLKVGGIYLPLHWPAQECYRYPIVLGYDSHHFVPLVTLKDSGPEIRAVPLVNRDRGRFEDLKVHFLTDPENEMKEKLLKEYLMVIEIPVQGWDHGTTHLINAAKLDEANLPKEINLVDDYFELVQHEYKKWQENSEQGRREGHAQNPMEPSVPQLSLMDVKCETPNCPFFMSVNTQPLCHECSERRQKNQNKLPKLNSKPGPEGLPGMALGASRGEAYEPLAWNPEESTGGPHSAPPTAPSPFLFSETTAMKCRSPGCPFTLNVQHNGFCERCHNARQLHASHAPDHTRHLDPGKCQACLQDVTRTFNGICSTCFKRTTAEASSSLSTSLPPSCHQRSKSDPSRLVRSPSPHSCHRAGNDAPAGCLSQAARTPGDRTGTSKCRKAGCVYFGTPENKGFCTLCFIEYRENKHFAAASGKVSPTASRFQNTIPCLGRECGTLGSTMFEGYCQKCFIEAQNQRFHEAKRTEEQLRSSQRRDVPRTTQSTSRPKCARASCKNILACRSEELCMECQHPNQRMGPGAHRGEPAPEDPPKQRCRAPACDHFGNAKCNGYCNECFQFKQMYG [TNFAIP3]”, the percent infected runs as follows: (BHK/HA-Zeo (control)) 98.1%; (BHK/NZAP-Zeo (ZAP)) 95.8%. For “MLRGISQLPAVATMSWVLLPVLWLIVQTQAIAIKQTPELTLHEIVCPKKLHILHKREIKNNQTEKHGKEERYEPEVQYQMILNGEEIILSLQKTKHLLGPDYTETLYSPRGEEITTKPENMEHCYYKGNILNEKNSVASISTCDGLRGYFTHHHQRYQIKPLKSTDEKEHAVFTSNQEEQDPANHTCGVKSTDGKQGPIRISRSLKSPEKEDFLRAQKYIDLYLVLDNAFYKNYNENLTLIRSFVFDVMNLLNVIYNTIDVQVALVGMEIWSDGDKIKVVPSASTTFDNFLRWHSSNLGKKIHDHAQLLSGISFNNRRVGLAASNSLCSPSSVAVIEAKKKNNVALVGVMSHELGHVLGMPDVPFNTKCPSGSCVMNQYLSSKFPKDFSTSCRAHFERYLLSQKPKCLLQAPIPTNIMTTPVCGNHLLEVGEDCDCGSPKECTNLCCEALTCKLKPGTDCGGDAPNHTTE [ADAMDEC1]”, in that order: 97.6% and 83.6%. The matching figures for “MMLQHPGQVSASEVSASAIVPCLSPPGSLVFEDFANLTPFVKEELRFAIQNKHLCHRMSSALESVTVSDRPLGVSITKAEVAPEEDERKKRRRERNKIAAAKCRNKKKEKTECLQKESEKLESVNAELKAQIEELKNEKQHLIYMLNLHRPTCIVRAQNGRTPEDERNLFIQQIKEGTLQS [ATF3]”: 96.7% and 93.3%. The matching figures for “MPITRMRMRPWLEMQINSNQIPGLIWINKEEMIFQIPWKHAAKHGWDINKDACLFRSWAIHTGRYKAGEKEPDPKTWKANFRCAMNSLPDIEEVKDQSRNKGSSAVRVYRMLPPLTKNQRKERKSKSSRDAKSKAKRKSCGDSSPDTFSDGLSSSTLPDDHSSYTVPGYMQDLEVEQALTPALSPCAVSSTLPDWHIPVEVVPDSTSDLYNFQVSPMPSTSEATTDEDEEGKLPEDIMKLLEQSEWQPTNVDGKGYLLNEPGVQPTSVYGDFSCKEEPEIDSPGGDIGLSLQRVFTDLKNMDATWLDSLLTPVRLPSIQAIPCAP [IRF1]”: 4.35% and 2.49%. Turning to “MSDAAVDTSSEITTKDLKEKKEVVEEAENGRDAPANGNAENEENGEQEADNEVDEEEEEGGEEEEEEEEGDGEEEDGDEDEEAESATGKRAAEDDEDDDVDTKKQKTDEDD [PTMA]”, the percent infected reads like this: (BHK/HA-Zeo (control)) 98.2%; (BHK/NZAP-Zeo (ZAP)) 95.7%. The matching figures for “MAQASPPRPERVLGASSPEARPAQEALLLPTGVFQVAEKMEKRTCALCPKDVEYNVLYFAQSENIAAHENCLLYSSGLVECEDQDPLNPDRSFDVESVKKEIQRGRKLKCKFCHKRGATVGCDLKNCNKNYHFFCAKKDDAVPQSDGVRGIYKLLCQQHAQFPIIAQSAKFSGVKRKRGRKKPLSGNHVQPPETMKCNTFIRQVKEEHGRHTDATVKVPFLKKCKEAGLLNYLLEEILDKVHSIPEKLMDETTSESDYEEIGSALFDCRLFEDTFVNFQAAIEKKIHASQQRWQQLKEEIELLQDLKQTLCSFQENRDLMSSSTSISSLSY [PHF11]”: 93.8% and 75%. As to “MKVWLLLGLLLVHEALEDVTGQHLPKNKRPKEPGENRIKPTNKKVKPKIPKMKDRDSANSAPKTQSIMMQVLDKGRFQKPAATLSLLAGQTVELRCKGSRIGWSYPAYLDTFKDSRLSVKQNERYGQLTLVNSTSADTGEFSCWVQLCSGYICRKDEAKTGSTYIFFTEKGELFVPSPSYFDVVYLNPDRQAVVPCRVTVLSAKVTLHREFPAKEIPANGTDIVYDMKRGFVYLQPHSEHQGVVYCRAEAGGRSQISVKYQLLYVAVPSGPPSTTILASSNKVKSGDDISVLCTVLGEPDVEVEFTWIFPGQKDERPVTIQDTWRLIHRGLGHTTRISQSVITVEDFETIDAGYYICTAQNLQGQTTVATTVEFS [PDGFRL]”, the percent infected reads like this: (BHK/HA-Zeo (control)) 98%; (BHK/NZAP-Zeo (ZAP)) 95.4%. The matching figures for “MFAKGKGSAVPSDGQAREKLALYVYEYLLHVGAQKSAQTFLSEIRWEKNITLGEPPGFLHSWWCVFWDLYCAAPERRDTCEHSSEAKAFHDYSAAAAPSPVLGNIPPNDGMPGGPIPPGFFQGPPGSQPSPHAQPPPHNPSSMMGPHSQPFMSPRYAGGPRPPIRMGNQPPGGVPGTQPLLPNSMDPTRQQGHPNMGGSMQRMNPPRGMGPMGPGPQNYGSGMRPPPNSLGPAMPGINMGPGAGRPWPNPNSANSIPYSSSSPGTYVGPPGGGGPPGTPIMPSPADSTNSSDNIYTMINPVPPGGSRSNFPMGPGSDGPMGGMGGMEPHHMNGSLGSGDIDGLPKNSPNNISGISNPPGTPRDDGELGGNFLHSFQNDNYSPSMTMSV [SSBP3]”: 89.2% and 48.9%.
